This note sets out measurements from publication PMC9199371.

By UniProt entry, the sequences of proteins in these tests, tags left out.
UniProt Q8R4B8: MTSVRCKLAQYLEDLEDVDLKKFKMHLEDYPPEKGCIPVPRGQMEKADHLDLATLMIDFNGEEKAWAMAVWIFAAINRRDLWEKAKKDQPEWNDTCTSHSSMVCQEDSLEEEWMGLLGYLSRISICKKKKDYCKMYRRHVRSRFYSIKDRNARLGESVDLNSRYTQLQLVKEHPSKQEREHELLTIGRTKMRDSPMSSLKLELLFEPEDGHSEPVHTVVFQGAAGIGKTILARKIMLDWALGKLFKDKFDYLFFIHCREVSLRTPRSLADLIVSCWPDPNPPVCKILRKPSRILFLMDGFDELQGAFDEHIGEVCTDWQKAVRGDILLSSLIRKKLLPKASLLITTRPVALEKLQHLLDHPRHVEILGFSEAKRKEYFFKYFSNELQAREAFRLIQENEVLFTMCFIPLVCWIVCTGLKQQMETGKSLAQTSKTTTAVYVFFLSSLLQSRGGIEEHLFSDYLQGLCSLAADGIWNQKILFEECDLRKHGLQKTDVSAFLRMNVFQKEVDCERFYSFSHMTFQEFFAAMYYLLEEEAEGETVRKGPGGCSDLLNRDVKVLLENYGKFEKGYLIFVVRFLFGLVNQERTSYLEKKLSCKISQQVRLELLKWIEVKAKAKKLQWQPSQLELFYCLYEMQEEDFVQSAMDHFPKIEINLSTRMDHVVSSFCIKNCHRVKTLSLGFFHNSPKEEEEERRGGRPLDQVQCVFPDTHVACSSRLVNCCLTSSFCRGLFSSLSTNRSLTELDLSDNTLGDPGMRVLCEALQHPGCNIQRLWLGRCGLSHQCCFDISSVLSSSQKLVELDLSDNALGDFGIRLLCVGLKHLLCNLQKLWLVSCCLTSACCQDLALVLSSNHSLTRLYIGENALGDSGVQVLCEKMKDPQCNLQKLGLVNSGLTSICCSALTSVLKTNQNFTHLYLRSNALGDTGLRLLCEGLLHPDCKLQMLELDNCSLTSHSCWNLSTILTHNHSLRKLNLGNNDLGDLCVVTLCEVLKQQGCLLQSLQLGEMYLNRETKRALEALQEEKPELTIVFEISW

Results are given in words; binding and its absence hold for the method and conditions named. Binding seen in cells or lysates may run through a third protein. Some results given as binding are weak or reduced against the parent protein; the word gives no strength.

Assay [1] deals with T1, SGT1 (a suppressor of the G2 allele of SKP1) (mouse (endogenous in primary peritoneal macrophages and RAW264.7)) (UniProt Q9CX34).
T1 sequence: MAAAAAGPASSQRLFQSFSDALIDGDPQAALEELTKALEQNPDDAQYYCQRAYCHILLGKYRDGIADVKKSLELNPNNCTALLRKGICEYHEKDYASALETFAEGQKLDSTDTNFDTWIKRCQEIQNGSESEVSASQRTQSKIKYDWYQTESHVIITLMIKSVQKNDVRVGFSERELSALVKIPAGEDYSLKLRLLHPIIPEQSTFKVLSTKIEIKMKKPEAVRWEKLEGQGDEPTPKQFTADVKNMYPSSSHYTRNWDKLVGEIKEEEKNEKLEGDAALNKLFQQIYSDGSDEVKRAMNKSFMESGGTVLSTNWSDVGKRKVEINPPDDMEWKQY
Nature of the assay: co-IP; endogenous proteins; anti-NLRP3, anti-SGT1 or rabbit IgG on Protein A/G Mix Magnetic Beads, 150 µg of protein sample, overnight at 4°C, washed with PBST; LPS+ATP-induced RAW264.7 cells (with or without HSF1 overexpression) and primary peritoneal macrophages (HSF1+/+ and HSF1-/-).

The target in assay [2] is NOD-like receptor (NLR)-family pyrin domain-containing 3 (NLRP3) (mouse (endogenous in primary peritoneal macrophages and RAW264.7)) (UniProt Q8R4B8). The description is as above.

In the case of “NOD-like receptor (NLR)-family pyrin domain-containing 3 (NLRP3) (from UniProt Q8R4B8 1-1033)”, the binding result in assay [1] is listed as “binds”.

B1: SGT1 (a suppressor of the G2 allele of SKP1) (protein, UniProt Q9CX34 1-336)
chain: T1 sequence
Consider B1, for which the binding entry in assay [2] is listed as “binds”.
